The values that follow come from paper PMC5149529.

Sequences of proteins named here, by UniProt entry; tags and fusion partners are left off.
UniProt P70288: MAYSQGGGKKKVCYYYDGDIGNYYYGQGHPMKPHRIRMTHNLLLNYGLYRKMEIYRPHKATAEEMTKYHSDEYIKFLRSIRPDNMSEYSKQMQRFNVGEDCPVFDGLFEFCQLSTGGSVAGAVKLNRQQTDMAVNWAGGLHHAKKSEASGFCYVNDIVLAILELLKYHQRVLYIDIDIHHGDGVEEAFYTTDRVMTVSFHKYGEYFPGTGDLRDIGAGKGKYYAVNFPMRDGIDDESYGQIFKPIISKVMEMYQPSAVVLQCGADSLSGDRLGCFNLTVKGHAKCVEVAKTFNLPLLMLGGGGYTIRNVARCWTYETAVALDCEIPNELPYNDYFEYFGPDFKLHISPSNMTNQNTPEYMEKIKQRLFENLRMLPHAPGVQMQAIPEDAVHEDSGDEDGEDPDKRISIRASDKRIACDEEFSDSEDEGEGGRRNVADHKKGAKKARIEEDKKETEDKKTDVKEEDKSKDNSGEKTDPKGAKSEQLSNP
UniProt B1AR17: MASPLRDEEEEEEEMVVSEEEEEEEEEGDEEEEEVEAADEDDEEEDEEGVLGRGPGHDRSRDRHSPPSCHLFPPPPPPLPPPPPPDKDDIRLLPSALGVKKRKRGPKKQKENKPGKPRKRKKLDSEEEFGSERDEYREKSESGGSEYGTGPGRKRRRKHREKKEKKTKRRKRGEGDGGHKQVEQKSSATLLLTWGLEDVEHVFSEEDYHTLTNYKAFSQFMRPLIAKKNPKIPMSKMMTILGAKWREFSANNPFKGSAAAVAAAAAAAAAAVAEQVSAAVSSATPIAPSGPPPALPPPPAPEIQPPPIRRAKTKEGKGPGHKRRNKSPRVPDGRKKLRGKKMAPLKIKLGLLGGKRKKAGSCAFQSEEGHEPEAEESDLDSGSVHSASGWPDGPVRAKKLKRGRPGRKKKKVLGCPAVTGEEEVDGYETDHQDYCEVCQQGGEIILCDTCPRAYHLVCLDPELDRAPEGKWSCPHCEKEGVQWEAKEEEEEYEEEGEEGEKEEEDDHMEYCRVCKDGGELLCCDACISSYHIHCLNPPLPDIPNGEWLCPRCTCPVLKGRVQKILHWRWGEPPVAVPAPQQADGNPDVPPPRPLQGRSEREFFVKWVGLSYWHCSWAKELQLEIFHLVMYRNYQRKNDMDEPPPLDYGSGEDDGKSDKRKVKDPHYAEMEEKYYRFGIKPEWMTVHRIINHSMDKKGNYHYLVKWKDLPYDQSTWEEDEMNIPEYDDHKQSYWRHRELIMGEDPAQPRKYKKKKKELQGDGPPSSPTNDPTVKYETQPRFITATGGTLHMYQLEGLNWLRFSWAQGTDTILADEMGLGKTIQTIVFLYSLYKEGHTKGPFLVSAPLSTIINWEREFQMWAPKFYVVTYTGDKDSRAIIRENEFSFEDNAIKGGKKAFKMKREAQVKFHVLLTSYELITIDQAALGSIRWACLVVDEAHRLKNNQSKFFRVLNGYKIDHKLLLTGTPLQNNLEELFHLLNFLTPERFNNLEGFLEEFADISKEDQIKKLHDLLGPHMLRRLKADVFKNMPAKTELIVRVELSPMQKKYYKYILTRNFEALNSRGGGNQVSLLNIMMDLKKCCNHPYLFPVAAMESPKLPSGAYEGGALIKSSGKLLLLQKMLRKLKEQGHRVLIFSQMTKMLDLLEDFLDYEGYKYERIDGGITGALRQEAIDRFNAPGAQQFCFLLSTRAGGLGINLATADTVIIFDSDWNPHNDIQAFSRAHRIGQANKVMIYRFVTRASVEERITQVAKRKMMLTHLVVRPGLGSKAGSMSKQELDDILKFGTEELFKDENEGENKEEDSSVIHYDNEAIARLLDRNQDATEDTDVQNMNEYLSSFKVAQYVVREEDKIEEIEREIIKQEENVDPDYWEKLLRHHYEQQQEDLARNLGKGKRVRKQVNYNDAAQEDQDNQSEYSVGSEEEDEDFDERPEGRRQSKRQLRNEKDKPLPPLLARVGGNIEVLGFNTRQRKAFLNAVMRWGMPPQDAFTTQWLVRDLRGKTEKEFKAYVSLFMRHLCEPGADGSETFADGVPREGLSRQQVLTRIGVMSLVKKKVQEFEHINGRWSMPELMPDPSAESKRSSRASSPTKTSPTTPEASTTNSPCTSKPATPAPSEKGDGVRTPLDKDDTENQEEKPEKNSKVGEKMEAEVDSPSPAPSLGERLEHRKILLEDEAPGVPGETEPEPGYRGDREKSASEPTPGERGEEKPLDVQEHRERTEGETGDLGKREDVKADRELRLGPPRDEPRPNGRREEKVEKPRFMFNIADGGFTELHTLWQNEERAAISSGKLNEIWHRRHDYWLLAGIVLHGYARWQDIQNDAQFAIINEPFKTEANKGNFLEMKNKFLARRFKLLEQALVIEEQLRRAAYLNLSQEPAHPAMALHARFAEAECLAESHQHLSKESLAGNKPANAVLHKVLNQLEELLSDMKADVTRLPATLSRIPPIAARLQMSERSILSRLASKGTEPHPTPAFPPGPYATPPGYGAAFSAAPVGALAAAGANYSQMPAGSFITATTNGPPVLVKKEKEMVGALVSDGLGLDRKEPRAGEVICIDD
UniProt A2A8L1: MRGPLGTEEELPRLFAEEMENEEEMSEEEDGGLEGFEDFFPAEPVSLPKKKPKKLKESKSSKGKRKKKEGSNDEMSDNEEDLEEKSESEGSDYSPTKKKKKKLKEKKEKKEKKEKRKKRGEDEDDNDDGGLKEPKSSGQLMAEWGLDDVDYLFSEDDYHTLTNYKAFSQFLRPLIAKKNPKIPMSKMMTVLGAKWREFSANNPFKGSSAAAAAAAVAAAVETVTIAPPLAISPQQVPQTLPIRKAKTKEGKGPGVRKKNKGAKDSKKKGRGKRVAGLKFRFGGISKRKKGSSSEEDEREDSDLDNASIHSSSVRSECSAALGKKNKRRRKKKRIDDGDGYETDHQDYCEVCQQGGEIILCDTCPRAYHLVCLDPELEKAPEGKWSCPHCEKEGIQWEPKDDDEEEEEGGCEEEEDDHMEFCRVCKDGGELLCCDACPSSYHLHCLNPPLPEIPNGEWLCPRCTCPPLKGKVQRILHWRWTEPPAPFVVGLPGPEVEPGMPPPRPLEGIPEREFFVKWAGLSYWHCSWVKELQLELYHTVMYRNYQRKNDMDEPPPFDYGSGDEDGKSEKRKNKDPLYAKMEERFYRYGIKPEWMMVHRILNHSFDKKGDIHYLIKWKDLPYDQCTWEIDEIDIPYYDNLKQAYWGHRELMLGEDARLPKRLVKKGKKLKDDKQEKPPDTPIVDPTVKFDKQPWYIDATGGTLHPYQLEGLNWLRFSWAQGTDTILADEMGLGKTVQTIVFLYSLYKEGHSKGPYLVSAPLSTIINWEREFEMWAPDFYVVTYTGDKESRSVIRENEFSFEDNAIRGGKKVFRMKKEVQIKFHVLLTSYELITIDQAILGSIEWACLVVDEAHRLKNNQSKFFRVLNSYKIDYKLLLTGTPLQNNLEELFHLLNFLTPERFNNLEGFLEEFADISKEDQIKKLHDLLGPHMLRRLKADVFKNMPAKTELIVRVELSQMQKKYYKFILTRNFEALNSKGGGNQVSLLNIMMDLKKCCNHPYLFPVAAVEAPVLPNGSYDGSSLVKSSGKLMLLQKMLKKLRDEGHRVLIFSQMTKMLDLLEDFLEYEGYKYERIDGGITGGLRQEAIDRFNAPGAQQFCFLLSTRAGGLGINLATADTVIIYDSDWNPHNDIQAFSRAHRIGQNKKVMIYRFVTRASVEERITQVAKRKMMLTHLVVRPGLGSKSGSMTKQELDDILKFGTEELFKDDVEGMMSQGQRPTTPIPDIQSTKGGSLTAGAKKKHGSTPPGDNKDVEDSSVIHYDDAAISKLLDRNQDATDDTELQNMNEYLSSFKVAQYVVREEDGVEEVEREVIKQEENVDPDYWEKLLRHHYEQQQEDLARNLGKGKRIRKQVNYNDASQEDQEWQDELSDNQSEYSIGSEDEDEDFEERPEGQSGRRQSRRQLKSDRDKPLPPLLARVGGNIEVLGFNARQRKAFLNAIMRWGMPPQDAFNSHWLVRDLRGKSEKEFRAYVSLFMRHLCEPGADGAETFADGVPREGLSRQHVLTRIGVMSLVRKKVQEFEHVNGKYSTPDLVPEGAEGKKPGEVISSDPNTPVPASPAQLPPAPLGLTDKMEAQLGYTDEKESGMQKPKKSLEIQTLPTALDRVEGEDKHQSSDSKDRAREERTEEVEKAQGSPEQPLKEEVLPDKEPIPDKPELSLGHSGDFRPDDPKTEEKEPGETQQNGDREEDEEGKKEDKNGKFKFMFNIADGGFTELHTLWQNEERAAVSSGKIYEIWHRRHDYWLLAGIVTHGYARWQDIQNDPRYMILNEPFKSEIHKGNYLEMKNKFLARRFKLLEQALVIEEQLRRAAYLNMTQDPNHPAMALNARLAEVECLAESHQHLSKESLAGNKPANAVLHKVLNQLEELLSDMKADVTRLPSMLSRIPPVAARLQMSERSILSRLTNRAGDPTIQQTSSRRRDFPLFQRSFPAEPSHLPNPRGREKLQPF
UniProt Q6PDQ2: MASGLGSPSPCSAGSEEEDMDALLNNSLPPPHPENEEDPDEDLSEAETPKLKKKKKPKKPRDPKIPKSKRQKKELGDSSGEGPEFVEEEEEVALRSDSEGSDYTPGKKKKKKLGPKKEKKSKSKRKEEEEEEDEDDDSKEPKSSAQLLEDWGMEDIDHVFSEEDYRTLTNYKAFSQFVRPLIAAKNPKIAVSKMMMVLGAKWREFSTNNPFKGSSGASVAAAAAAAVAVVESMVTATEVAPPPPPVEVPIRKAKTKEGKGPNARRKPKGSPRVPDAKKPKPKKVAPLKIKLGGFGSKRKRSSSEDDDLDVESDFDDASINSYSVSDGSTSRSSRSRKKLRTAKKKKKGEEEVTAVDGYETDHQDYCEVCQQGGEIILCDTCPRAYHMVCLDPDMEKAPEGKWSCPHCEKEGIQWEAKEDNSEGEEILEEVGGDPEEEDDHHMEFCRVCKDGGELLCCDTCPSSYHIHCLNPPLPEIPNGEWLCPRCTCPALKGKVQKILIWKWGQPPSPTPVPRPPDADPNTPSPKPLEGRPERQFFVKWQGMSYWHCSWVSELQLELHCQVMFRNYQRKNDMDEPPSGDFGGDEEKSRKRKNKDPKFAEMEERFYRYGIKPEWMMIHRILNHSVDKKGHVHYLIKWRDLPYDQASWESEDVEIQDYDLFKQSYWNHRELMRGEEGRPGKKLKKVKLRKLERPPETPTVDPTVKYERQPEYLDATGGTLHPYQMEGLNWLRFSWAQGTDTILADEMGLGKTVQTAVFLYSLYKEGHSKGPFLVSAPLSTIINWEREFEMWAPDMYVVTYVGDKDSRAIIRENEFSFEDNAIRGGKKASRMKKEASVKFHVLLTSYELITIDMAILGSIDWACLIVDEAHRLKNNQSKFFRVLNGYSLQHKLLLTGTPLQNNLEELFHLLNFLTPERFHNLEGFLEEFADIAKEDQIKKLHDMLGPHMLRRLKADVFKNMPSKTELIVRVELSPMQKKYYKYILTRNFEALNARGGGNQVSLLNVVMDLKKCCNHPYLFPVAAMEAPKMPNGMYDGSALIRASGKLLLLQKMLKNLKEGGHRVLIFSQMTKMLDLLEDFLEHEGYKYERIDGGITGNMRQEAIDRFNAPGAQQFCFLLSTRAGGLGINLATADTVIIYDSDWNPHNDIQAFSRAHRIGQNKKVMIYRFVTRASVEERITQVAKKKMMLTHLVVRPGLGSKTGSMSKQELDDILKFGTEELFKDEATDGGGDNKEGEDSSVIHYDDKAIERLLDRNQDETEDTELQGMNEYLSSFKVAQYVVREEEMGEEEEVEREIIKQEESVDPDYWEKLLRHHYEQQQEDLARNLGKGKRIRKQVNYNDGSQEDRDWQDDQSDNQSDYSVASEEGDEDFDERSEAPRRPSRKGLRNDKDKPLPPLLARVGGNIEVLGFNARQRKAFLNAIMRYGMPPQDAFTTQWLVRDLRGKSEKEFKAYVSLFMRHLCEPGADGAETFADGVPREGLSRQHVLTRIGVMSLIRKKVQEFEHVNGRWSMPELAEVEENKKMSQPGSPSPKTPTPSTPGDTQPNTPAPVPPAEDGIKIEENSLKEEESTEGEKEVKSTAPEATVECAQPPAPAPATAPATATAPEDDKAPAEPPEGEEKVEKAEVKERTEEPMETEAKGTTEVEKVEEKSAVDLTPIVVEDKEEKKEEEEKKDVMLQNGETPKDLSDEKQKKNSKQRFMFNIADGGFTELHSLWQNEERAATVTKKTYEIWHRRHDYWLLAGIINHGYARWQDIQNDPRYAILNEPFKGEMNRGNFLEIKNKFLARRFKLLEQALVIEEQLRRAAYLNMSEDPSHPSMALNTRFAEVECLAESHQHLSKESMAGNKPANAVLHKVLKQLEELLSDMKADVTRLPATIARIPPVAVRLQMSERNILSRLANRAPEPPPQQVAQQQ

No constants are given. Whether binding was seen depends on the method and setting. Binding seen in cells or lysates may run through a third protein. Some entries that bind do so weakly or less than the wild type.

Assay [1] has as its target HDAC2 (mouse (endogenous in embryonic cortex)) (UniProt P70288). Put plainly: co-IP; lysates of mouse cortices (E12.5, E15.5, E18.5), immunoprecipitation with HDAC2 antibody, immunoblotting for NuRD subunits.
The target in assay [2] is CHD3 (mouse (endogenous in embryonic cortex)) (UniProt B1AR17). Put plainly: co-IP; lysates of E15.5 mouse cortices, immunoprecipitation with CHD3, CHD4 or CHD5 antibodies, immunoblotting.
Assay [3] deals with CHD5 (mouse (endogenous in embryonic cortex)) (UniProt A2A8L1). Described as above.
In assay [4] the target is CHD4 (mouse (endogenous in embryonic cortex)) (UniProt Q6PDQ2). Described as above.
Assay [5] has as its target T1, MTA2 (in cultured NPCs and differentiated neurons) (rat (endogenous in NPCs from E14.5 rat cortices)) (UniProt B2GV01).
T1 sequence: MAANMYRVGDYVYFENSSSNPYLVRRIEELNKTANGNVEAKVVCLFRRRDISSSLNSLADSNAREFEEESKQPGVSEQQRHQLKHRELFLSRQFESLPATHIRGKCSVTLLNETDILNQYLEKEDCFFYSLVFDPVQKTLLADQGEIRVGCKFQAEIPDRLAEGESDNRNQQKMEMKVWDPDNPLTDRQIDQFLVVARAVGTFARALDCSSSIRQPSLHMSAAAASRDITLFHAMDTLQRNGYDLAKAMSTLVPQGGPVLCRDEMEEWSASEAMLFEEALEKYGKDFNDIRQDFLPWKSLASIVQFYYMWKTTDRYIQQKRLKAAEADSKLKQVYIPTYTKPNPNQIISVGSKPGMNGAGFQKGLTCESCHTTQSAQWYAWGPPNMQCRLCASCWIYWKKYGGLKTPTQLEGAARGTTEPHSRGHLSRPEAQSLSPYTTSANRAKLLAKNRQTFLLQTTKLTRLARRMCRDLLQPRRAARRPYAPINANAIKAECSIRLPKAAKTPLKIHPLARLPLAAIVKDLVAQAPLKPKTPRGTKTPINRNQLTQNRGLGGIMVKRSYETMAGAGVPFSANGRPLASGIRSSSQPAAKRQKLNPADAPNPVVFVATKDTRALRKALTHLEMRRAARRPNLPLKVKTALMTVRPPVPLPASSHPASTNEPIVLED
Nature of the assay: co-IP; cultured NPCs and neurons differentiated from them in vitro; which protein was precipitated is not told in the text (Figures S4C and S4D).

For the substance MTA2 (from UniProt Q9R190 1-668), in assay [1], the binding result is given as “binds”.
Take CHD4 (from UniProt Q6PDQ2 1-1915): the binding entry is given as “no binding” in assay [2] and “binds” in assay [1].
For the substance MTA1 (from UniProt Q8K4B0 1-715), in assay [1], the binding entry is “binds”.
With HDAC2 (from UniProt P70288 1-488), the binding entry in assay [3], in assay [4] and in assay [2] was “binds” throughout.
With CHD3 (from UniProt B1AR17 1-2055), the binding result in assay [1] is recorded as “binds”.
As to “CHD5 (in cultured NPCs and differentiated neurons) (from UniProt D3ZD32 1-1948)”, the binding entry in assay [5] is listed as “binds”.
Turning to CHD5 (from UniProt A2A8L1 1-1946), the binding result is recorded as “no binding” in assay [4], “no binding” in assay [2] and “binds” in assay [1].
